Values from PubChem BioAssay AID1259425 (University of Nebraska Medical Center, 2018)

Screen: 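Compare each knockdown with KSR1 silencing using changes in marker transcripts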 (primary screen)
Cell system: HCT116 human colon cancer cells
Reagents: siRNA pool against human genes, 50 nM siRNA
Detection: 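mRNA of six signature genes measured together by branched-DNA assay after 50 nM siRNA pool, blank removed, divided by geometric mean of two housekeeping genes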
Scale: BNIP3L mRNA: higher = more BNIP3L transcript after knockdown; NDRG1 mRNA: higher = more NDRG1 transcript after knockdown
This is an unselected part of about 14,000 deposited reagents. Not all columns of the deposit are shown. Not stated in the record: the time to read-out.

The opening 2 records, to show the layout:
VCX2 (GeneID 51480)
- BNIP3L mRNA, set 1: 0.0583
- NDRG1 mRNA, set 1: 0.176

EEPD1 (GeneID 80820)
- BNIP3L mRNA, set 1: 0.138
- NDRG1 mRNA, set 1: 0.299

The list itself, from the first entry:
VCX2 (GeneID 51480)
- BNIP3L mRNA, set 1: 0.0583
- NDRG1 mRNA, set 1: 0.176

EEPD1 (GeneID 80820)
- BNIP3L mRNA, set 1: 0.138
- NDRG1 mRNA, set 1: 0.299

CCNJ (GeneID 54619)
- BNIP3L mRNA, set 1: 0.0877
- NDRG1 mRNA, set 1: 0.11

SORCS2 (GeneID 57537)
- BNIP3L mRNA, set 1: 0.0794
- NDRG1 mRNA, set 1: 0.366

PMVK (GeneID 10654)
- BNIP3L mRNA, set 1: 0.0369
- NDRG1 mRNA, set 1: 0.392

CD101 (GeneID 9398)
- BNIP3L mRNA, set 1: 0.111
- NDRG1 mRNA, set 1: 0.14

ACCS (GeneID 84680)
- BNIP3L mRNA, set 1: 0.157
- NDRG1 mRNA, set 1: 0.0985

FXN (GeneID 2395)
- BNIP3L mRNA, set 1: 0.122
- NDRG1 mRNA, set 1: 0.0705

NDUFA3 (GeneID 4696)
- BNIP3L mRNA, set 1: 0.142
- NDRG1 mRNA, set 1: 0.23

CYP4F12 (GeneID 66002)
- BNIP3L mRNA, set 1: 0.15
- NDRG1 mRNA, set 1: 0.612

AQP1 (GeneID 358)
- BNIP3L mRNA, set 1: 0.0586
- NDRG1 mRNA, set 1: 0.317

LYPD3 (GeneID 27076)
- BNIP3L mRNA, set 1: 0.121
- NDRG1 mRNA, set 1: 0.28

ZFP91 (GeneID 80829)
- BNIP3L mRNA, set 1: 0.0913
- NDRG1 mRNA, set 1: 0.152

PCDHB9 (GeneID 56127)
- BNIP3L mRNA, set 1: 0.0901
- NDRG1 mRNA, set 1: 0.185

TMEM35A (GeneID 59353)
- BNIP3L mRNA, set 1: 0.0871
- NDRG1 mRNA, set 1: 1.04

LONP2 (GeneID 83752)
- BNIP3L mRNA, set 1: 0.0626
- NDRG1 mRNA, set 1: 0.146

EHMT2 (GeneID 10919)
- BNIP3L mRNA, set 1: 0.0346
- NDRG1 mRNA, set 1: 0.13

PARPBP (GeneID 55010)
- BNIP3L mRNA, set 1: 0.112
- NDRG1 mRNA, set 1: 0.193

WWC3 (GeneID 55841)
- BNIP3L mRNA, set 1: 0.0977
- NDRG1 mRNA, set 1: 0.211
